# Results from one PubChem assay

Source: PubChem BioAssay AID1159506 (NCATS, 2015).

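Luminescence from an EWS-FLI1 target-promoter (NR0B1) reporter, set against a CMV-promoter reporter, two days after silencing single genes in TC32 Ewing sarcoma cells.
Each siRNA was applied at 20 nM.
A z-score of the log NR0B1-over-CMV signal, less the median of siRNAs with the same seed; more negative means a stronger specific loss of the NR0B1 reporter.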

This is part of the screen; most of the strongest results are not listed here.
Sequences are the guide (antisense) strand, without overhang.

With AACAUGUUCCGUAAACAGC against CACUL1 the assay gave seed-corrected z-score -0.1038.
With AUACUGAUGAAGCUUAACA against MRGPRX1 the assay gave seed-corrected z-score -1.214.
With UACUUUCCCGUCGCAUACC against FASN the assay gave seed-corrected z-score -0.3256.
With UGACUCUUAAGGGAAGUUC against MUC4 the assay gave seed-corrected z-score 0.7798.
With UCUUCUAGAGCUAAAAUGG against GSTA4 the assay gave seed-corrected z-score 0.2755.
With UUUUUGCUUAGUAGUAUUC against FAM74A3 the assay gave seed-corrected z-score -0.2232.
With UAACUUUGACCAGCCGAGG against CYR61 the assay gave seed-corrected z-score 0.1065.
With UUCGGUUUUUGAAUCUGCC against PABPC4L the assay gave seed-corrected z-score -0.4001.
With UCUGGUACUUAGAAUUGCC against GTF2B the assay gave seed-corrected z-score 0.6703.
With UAAGAUCCCAGAGUUAAUA against LY6H the assay gave seed-corrected z-score -0.2297.
With UGAGAACCAACCUAUGGGC against KLHL4 the assay gave seed-corrected z-score 0.8918.
With UUGGAUUUAAAUAAGCCGU against MVB12B the assay gave seed-corrected z-score -0.2918.
With UACAUGAAGAGACCGAAGC against SMIM19 the assay gave seed-corrected z-score 0.1185.
With UAUAGUAGUCACUCGGUCC against CDKL1 the assay gave seed-corrected z-score 0.1467.
With UUUCUUUCCACGGCUGAAC against WFDC6 the assay gave seed-corrected z-score -0.219.
With UCAUCCUUCAAGGCACGGG against CADM4 the assay gave seed-corrected z-score 0.9113.
With UGGGAUAUAAUGCACGUUC against MSL3 the assay gave seed-corrected z-score -0.2573.
With AAACGCAUCAUAACAGACA against GJC1 the assay gave seed-corrected z-score 0.5699.
With UGAGGCUUGAGAAACCUCC against SLC28A1 the assay gave seed-corrected z-score 0.3589.
With UAUAUGGUAUUAAUCGUCC against SMCHD1 the assay gave seed-corrected z-score 0.04514.
With UACUUGAUCGAGGUUGAGG against CSF1R the assay gave seed-corrected z-score -0.4118.
With UAGUGGUUGAUGACUGUUG against INHBA the assay gave seed-corrected z-score -0.6725.
With AGAUUGAACAUCUAAAAUU against SVIP the assay gave seed-corrected z-score 0.1876.
With UUUUCGAACCUUAUUAGGC against MYCBP2 the assay gave seed-corrected z-score -1.29.
With UACUUUUCCUGAUCAGCAU against TEX13A the assay gave seed-corrected z-score 0.5.
With UUUAAGACGAUGGGCUUUC against CDCA5 the assay gave seed-corrected z-score -1.662.
With UUUGAUACAAGGGCACUGA against CYP4F2 the assay gave seed-corrected z-score 0.8038.
With UAUCAUCAUUUCUACGUGC against SMARCAD1 the assay gave seed-corrected z-score -0.9658.
With UACCUUAUCAGUUACACUG against ZNF474 the assay gave seed-corrected z-score -1.207.
With AACUGUUCUCCCUUCGUGG against CTCFL the assay gave seed-corrected z-score -0.02786.
With UAUUGCAUCUCUUCGUCUG against RNASE11 the assay gave seed-corrected z-score 0.5278.
With AUUGAUGCUAUUUUGGAUC against CRNDE the assay gave seed-corrected z-score -0.3035.
With UUAAUUGCUGCCUGUACGG against DNA2 the assay gave seed-corrected z-score -0.7023.
With UGCAUUUGCACGGAGAGGG against CHRNA4 the assay gave seed-corrected z-score -0.2087.
With UCAAGAAUCUGCUAUGAGG against LINC01061 the assay gave seed-corrected z-score -0.1408.
With UAUCAUUGCACUGAAUAGC against C5orf42 the assay gave seed-corrected z-score -0.006333.
With UUGGUUGUGAAUUUGAUCA against UBE2L6 the assay gave seed-corrected z-score -0.5881.
With UCUAUGACUAUAUAUCCUC against APOO the assay gave seed-corrected z-score 0.3254.
With UCUGCGGAUUCUGAAAGGC against UQCRC2 the assay gave seed-corrected z-score -0.2442.
With UUGCGGAGUACUGUGGAUG against ZNF318 the assay gave seed-corrected z-score 0.956.
With AAAGGUCUAAAGCUGCCCU against SLC48A1 the assay gave seed-corrected z-score -0.7441.
With UGUCAUAUAACUGGAUACC against SHB the assay gave seed-corrected z-score -0.06464.
With AAGGGUUCCGGAUGUUUCU against SIRT2 the assay gave seed-corrected z-score 1.005.
With UAUGGGAGUGUUUUGGUGC against VN2R17P the assay gave seed-corrected z-score 0.4627.

For reference, 5 entries once more:

strand,gene,seed-corrected z-score
UAUCAUUGCACUGAAUAGC,C5orf42,-0.006333
UCAAGAAUCUGCUAUGAGG,LINC01061,-0.1408
AAACGCAUCAUAACAGACA,GJC1,0.5699
UUUUUGCUUAGUAGUAUUC,FAM74A3,-0.2232
UACUUUUCCUGAUCAGCAU,TEX13A,0.5